Experimental data: patent US20200299341A1 (SOCIETE DE COMMERCIALISATION DES PRODUITS DE LA RECHERCHE …, published 2020)
No constants are given. Whether binding was seen depends on the method and setting. Some binding calls cover weakened binding; strength is not graded here.

Chains of the proteins cited; added tags and fusions are not shown. Lines headed by an entry give the natural chain unless they say otherwise; changes in a name come on top.
UniProt Q05195: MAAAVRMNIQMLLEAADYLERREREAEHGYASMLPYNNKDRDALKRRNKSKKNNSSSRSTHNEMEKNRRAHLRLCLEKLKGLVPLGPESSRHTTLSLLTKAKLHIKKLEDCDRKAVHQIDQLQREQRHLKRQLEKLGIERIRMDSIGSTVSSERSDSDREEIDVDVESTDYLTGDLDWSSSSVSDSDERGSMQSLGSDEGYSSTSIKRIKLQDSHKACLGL

Target: Mad1*DN (Mad1 b-HLH-LZ domain with C75S, C111S, D112N and C-terminal GSGC extension) (human) (UniProt Q05195)
Test: CD thermal denaturation at 222 nm, 16 uM, homodimer

- binding: binds
B1: Mad1*DN (Mad1 b-HLH-LZ domain with C75S, C111S, D112N and C-terminal GSGC extension) (protein)
chain: SRSTHNEMEKNRRAHLRLSLEKLKGLVPLGPESSRHTTLSLLTKAKLHIKKLEDSNRKAVHQIDQLQREQRHLKRQLEKLGSGC
